From PMC6180346, “Two Faces of CwlM, an Essential PknB Substrate, in Mycobacterium tuberculosis” (Cell Reports, 2018)
Results are given in words; binding and its absence hold for the method and conditions named. Binding can be weak; no strength is given.

The binders below were run against Rv0020c_FHA domain (M. tuberculosis) (assay: NMR titration; 1H-15N HSQC at 800 MHz, 20°C, 80 μM 15N-labeled Rv0020c-FHA in 10 mM sodium phosphate pH 6.8, 100 mM NaCl, 1 mM Tris-HCl, 5% D2O, with 80 μM unlabeled peptide; both purified).
For NDRPTGTFTFAELLA (phosphothreonine at 382; N-terminal acetyl; C-terminal amide) [AC-NDRPT(phospho)…-NH2], the binding was “binds”. In the case of NDRPTGTFTFAELLA (phosphothreonine at 382 and 386; N-terminal acetyl; C-terminal amide) [AC-NDRPT(phospo)GTFT(phospo)FAELLA-NH2], the binding is reported as “binds”. NDRPTGTFTFAELLA (phosphothreonine at 386; N-terminal acetyl; C-terminal amide) [AC-…(phospho)FAELLA-NH2] was tested, and the binding was “binds”. With NDRPTGTFTFAELLA (N-terminal acetyl; C-terminal amide) [AC-…-NH2 peptide] the binding was “no binding (tested: 80 μM)”.
